The list shows a part of the results. The main result of the screen is listed elsewhere. These columns were measured beside it and carry no call. Most of these compounds were active or inconclusive in the main read-out, so they are no random draw. The note in brackets gives the kind of curve behind each potency; many fits are weak.
Experiment: qHTS Assay for Lipid Storage Modulators in Drosophila S3 Cells;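 on cell number change: cells counted by Cell Tracker Red CMTPX staining in the red channel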
Conditions: BODIPY lipid droplet fluorescence, 18-24 h; for cell number change: measured here: cell count max response, cells fed with added oleic acid
In short: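 Laser-scanning cytometry quantifies lipid droplet accumulation (500–530 nm total intensity; droplet/cell object ratio) in oleic acid-fed (400 uM added) Drosophila S3 cells treated with a concentration series. 20 uM Triacsin C defined 100% inhibition.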

[1] = measured here: lipid fluorescence (Fed channel) AC50, cells fed with added oleic acid
[2] = measured here: cell number channel AC50, cells fed with added oleic acid

Compound | cell number change [%] | AC50 [1] | AC50 [2]
CC1CCc2[nH]c3ccc(C(=O)O)cc3c2C1 (stereo unspecified) | 3.3 | 29.1 µM [falling, single point] | 
CCOc1ccc(-n2c(COc3ccccc3)nnc2SCC(N)=O)cc1 | 5.06 | 0.517 µM [falling, partial curve] | 
CCOC(=O)c1c(NC(=O)c2cccc(N3C(=O)CCC3=O)c2)sc2c1CCN(CC)C2 | -15.9 | 16.4 µM [falling, single point] | 
O=c1oc(C2(O)CCCCC2)cc2ccc(Br)cc12 | 9.25 |  | 0.103 µM [falling, single point]
Cc1ccc(S(=O)(=O)Cc2ccc(C(=O)N3CCN(Cc4ccccc4)CC3)o2)cc1 | 143 | 2.06 µM [rising, partial curve] | 5.8 µM [rising, full curve]
CSc1cccc(CN2CCC(CO)(Cc3cccc(C(F)(F)F)c3)CC2)c1 | -24.9 | 29.1 µM [falling, single point] | 
O=C(c1ccc(S(=O)(=O)Cc2cc(F)ccc2F)c([N+](=O)[O-])c1)N1CCCCC1 | -12.9 | 18.4 µM [falling, single point] | 
N#CCSc1nc2sc3c(c2c(=O)n1C1CCCCC1)CCCC3 | 23.5 | 6.51 µM [rising, full curve] | 
CCCCCCCCOc1ccc(C2OC34CCCCC3C(C#N)(C#N)C2(C#N)C(=N)O4)cc1 (stereo unspecified) | 18.1 |  | 
Cc1ccc(N(CN2CCCC2=O)C(=O)c2ccc(C)c(C)c2)cc1 |  | 0.146 µM [rising, full curve, poor fit] | 3.26 µM [rising, partial curve, poor fit]
CC(C)Cn1c(CN2CCCCC2C)nc2c1c(=O)n(C)c(=O)n2C (stereo unspecified) | -30.8 | 16.4 µM [falling, partial curve] | 0.103 µM [falling, full curve, poor fit]
CC(OC(=O)c1cccc(S(=O)(=O)N2CCCCCC2)c1)C(=O)Nc1ccc(S(N)(=O)=O)cc1 (stereo unspecified) | -20.1 | 29.1 µM [falling, single point] | 1.03 µM [falling, full curve, poor fit]
O=C(Nc1ccc(N2CCCCC2)c(Cl)c1)c1ccc2c(c1)OCCO2 | -14.5 | 0.116 µM [falling, full curve, poor fit] | 
CC(C)N(Cc1cc2ccccc2[nH]c1=O)C(=O)C(C)(C)C | 21.1 |  | 0.116 µM [rising, full curve, poor fit]
O=C(Nc1scc(-c2ccccc2)c1C(=O)O)c1ccco1 |  |  | 6.51 µM [falling, single point]

Quoted from the listing.
Under AC50 [1], CSc1cccc(CN2CCC(CO)(Cc3cccc(C(F)(F)F)c3)CC2)c1 has 29.1 µM [falling, single point]
Under AC50 [1], Cc1ccc(S(=O)(=O)Cc2ccc(C(=O)N3CCN(Cc4ccccc4)CC3)o2)cc1 has 2.06 µM [rising, partial curve]

— PubChem BioAssay AID2685 (National Center for Advancing Translational Sciences (NCATS), 2010)
